# In PubChem BioAssay AID2551 (National Center for Advancing Translational Sciences (NCATS), 2010):
# The chains behind the UniProt entries cited, without tags or fusion partners. Where a name states a change or a piece, a line headed by the entry shows the natural chain unless it says otherwise.
# UniProt P51450: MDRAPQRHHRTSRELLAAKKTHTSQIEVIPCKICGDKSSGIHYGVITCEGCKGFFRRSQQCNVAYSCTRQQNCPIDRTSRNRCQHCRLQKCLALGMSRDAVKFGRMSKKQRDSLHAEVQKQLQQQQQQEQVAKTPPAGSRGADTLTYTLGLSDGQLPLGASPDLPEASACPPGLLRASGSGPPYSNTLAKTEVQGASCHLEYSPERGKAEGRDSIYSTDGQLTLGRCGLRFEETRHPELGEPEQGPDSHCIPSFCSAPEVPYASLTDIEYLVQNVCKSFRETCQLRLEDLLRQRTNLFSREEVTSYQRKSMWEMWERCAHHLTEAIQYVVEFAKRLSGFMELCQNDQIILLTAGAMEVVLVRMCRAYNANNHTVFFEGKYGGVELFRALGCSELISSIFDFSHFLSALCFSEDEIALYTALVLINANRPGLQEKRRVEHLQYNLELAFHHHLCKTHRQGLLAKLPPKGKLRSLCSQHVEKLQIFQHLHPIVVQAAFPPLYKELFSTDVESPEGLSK
# The campaign covered roughly 310,000 compounds. About 17,000 (5.5%) were called active. Inconclusive results, whose numbers are uncertain, are shown with a selection of clear calls. Calls come from the whole dose curve; as a rule, active = well fitted inhibition curve with a large enough effect; inconclusive = small, poorly fitted or top-dose-only effect, or effect the other way; inactive = no such curve, though single readings can be large or run the other way. Potencies of inconclusive entries are doubtful fits and often do not repeat.
# Molecular target: Nuclear receptor ROR-gamma (Mus musculus) (UniProt P51450)
# Assay: qHTS for inhibitors of ROR gamma transcriptional activity; note: nearly all actives have a fitted effect of over 60% in size
# Settings: Drosophila S2 Gal4-RORgamma UAS-luciferase reporter, 20 h; activity change, negative = inhibition: at 53.6 µM (top of the series)
# Method in brief: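 In this cell-based reporter format, copper sulfate (700 uM final) drives Gal4–ROR gamma fusion expression from a metallothionein promoter in Drosophila Schneider cells; compounds preincubated 1 hr, reporter read after 20 hr at ambient temperature.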
# % is set by controls: 0 for no effect and ±100 for the full control effect; potency is the fitted concentration of half-maximal effect.
SMILES,Potency,"activity change, negative = inhibition"
Cc1[nH]c2ccc3ccccc3c2c(=O)c1C/C=C/Cl,"inconclusive: 1.12 µM [activator, partial curve]",–
CC(=O)Oc1ccc(C(=O)[C@H]2[C@H]3C(=O)N(c4ccccc4)C(=O)[C@H]3[C@@H]3C=CC=NN32)cc1,"inconclusive: 35.5 µM [inhibitor, single point]",–
O=C(N/N=C/c1ccc([N+](=O)[O-])cc1)c1ccc2nc[nH]c2c1,inactive,–
O=C(NN1C(=O)c2ccccc2NC1c1ccccn1)c1ccccc1 (centres undefined),"inconclusive: 35.5 µM [inhibitor, single point]",–
Cc1cc(Br)ccc1NC(=S)Nc1cccc([N+](=O)[O-])c1,active: 11.2 µM,–
CCOC(=O)C1=C(C)NC(=NC)SC1c1ccccc1 (centres undefined),inactive,–
Cc1ccccc1NC(=O)Cc1nc(COC(=O)C(C)C)cs1,inactive,–
CCOC(=O)c1ccccc1OCc1cc(/C=N/n2cnnc2)ccc1OC,"inconclusive: 0.0079 µM [activator, full curve, poor fit]",–
CCN(CC)CC(O)CCCCCCCCC(=O)OC (centres undefined),inactive,–
CS(=O)(=O)N1CCC2(CCCN(Cc3ccc(C#N)cc3)C2)CC1,inactive,–
Cc1cccc(-n2c(C)cc(C(=O)NC3CCCCC3)c2C)c1,"inconclusive: 22.4 µM [inhibitor, single point]",–
CC(O)[C@H](NC(=O)C1(c2ccccc2)CCN(C(=O)OC(C)(C)C)CC1)C(=O)O (some centres undefined),"inconclusive: 0.282 µM [inhibitor, full curve, poor fit]",–
COc1ccccc1N1C(=O)C2CC(C)=C(C)CC2C1=O (centres undefined),inactive,–
O=C(O)C1CCCN1S(=O)(=O)c1ccccc1 (centres undefined),inactive,–
CCc1ccc(C(=O)c2cncc(Br)c2)cc1,"inconclusive: 12.6 µM [activator, partial curve, poor fit]",–
Cc1ccc2c(c1)N=C(c1ccccc1)CC(C(Cl)Cl)=N2,active: 11.2 µM,–
CSCCC(NC(=O)c1ccc(Br)cc1)C(=O)O (centres undefined),"inconclusive: 4.47 µM [inhibitor, single point]",–
CS(=O)(=O)Nc1cccc(-c2cc(Nc3ccccc3)ncn2)c1,"inconclusive: 10 µM [activator, partial curve]",–
O=C(OCC(=O)c1ccc[nH]1)c1ccccc1,inactive,–
CCOC(=O)/C(=N\Nc1ccccc1[N+](=O)[O-])c1csc(Nc2ccccc2)n1,active: 11.2 µM,–
CC(=O)C1=C(O)C(=O)N(c2ccccn2)C1c1ccc(C)cc1 (centres undefined),inactive,–
CCOc1cc(NC(=S)NCCc2ccccc2)c(OCC)cc1NC(C)=O,active: 11.2 µM,–
O=C(NCCc1ccc(S(=O)(=O)N2CCCC2)cc1)c1cccs1,"inconclusive: 22.4 µM [activator, single point]",–
CC(=O)N1CCN(C(c2ccccc2)c2ccccc2)CC1,inactive,–
CCOC(=O)c1c(C)[nH]c(C)c1S(=O)(=O)NCc1ccccc1OCC,"inconclusive: 20 µM [inhibitor, single point]",–

# Gathered by group: the compounds so far containing a COOH group.
SMILES,Potency,"activity change, negative = inhibition"
CC(O)[C@H](NC(=O)C1(c2ccccc2)CCN(C(=O)OC(C)(C)C)CC1)C(=O)O (some centres undefined),"inconclusive: 0.282 µM [inhibitor, full curve, poor fit]",–
O=C(O)C1CCCN1S(=O)(=O)c1ccccc1 (centres undefined),inactive,–
CSCCC(NC(=O)c1ccc(Br)cc1)C(=O)O (centres undefined),"inconclusive: 4.47 µM [inhibitor, single point]",–

# (listing goes on)

SMILES,Potency,"activity change, negative = inhibition"
CC(C)N1C(=O)CN(C2CCCCCC2)C(=O)C1c1ccccc1F (centres undefined),"inconclusive: 11.2 µM [activator, partial curve, poor fit]",–
COc1ccccc1/C=C1\CCCC2=C1Nc1nnnn1C2c1ccccc1OC (centres undefined),"inconclusive: 35.5 µM [inhibitor, single point]",–
Cc1cc(NC(=O)CCC(=O)N(c2ccccc2)C(C(=O)NC2CCCCC2)c2cccs2)no1 (centres undefined),"inconclusive: 35.5 µM [activator, single point]",–
CCCc1[nH]n(-c2ccc([N+](=O)[O-])cc2)c(=O)c1C=NCCc1c[nH]c2ccccc12,inactive,–
Cc1ccccc1NC(=O)C1CCN(c2cc(-c3ccccc3)nc3ncnn23)CC1,inactive,–
Cc1ccc(C(C)C)n1C(=O)OC(C)(C)C,–,inactive: -20.4% [at 10 µM]
CCC(C)N=CC1=C(O)CC(c2ccccc2)CC1=O (centres undefined),inactive,–
COc1ccc(C(C)NC(=S)NCc2ccc(F)cc2)cc1OC (centres undefined),active: 12.6 µM,–
C[C@@H]1C[C@H]2[C@@H]3C[C@H](F)C4=CC(=O)C=C[C@]4(C)[C@@]3(F)[C@@H](O)C[C@]2(C)[C@@]1(O)C(=O)CO,"inconclusive: 8.91 µM [inhibitor, partial curve]",–
COc1ccc(S(=O)(=O)N2CCCN(S(=O)(=O)c3ccc(OC)cc3C)CC2)c(C)c1,"inconclusive: 12.6 µM [activator, single point]",–
CCC(=O)Nc1cccc(Br)c1,"inconclusive: 35.5 µM [activator, single point]",–
CCCCNS(=O)(=O)c1ccc(NC(=O)c2cccs2)cc1,"inconclusive: 11.2 µM [activator, partial curve]",–
Cc1c(-c2cccc(Cl)c2)nc2ccccc2c1C(=O)OCC(=O)Nc1ccc2c(c1)OCO2,"inconclusive: 10 µM [activator, partial curve]",–
O=C1CS/C(=N/N=C\c2ccn[nH]2)N1,active: 10 µM,–
CN(C1=NC(=O)C(CC(=O)Nc2ccc(Br)cc2)S1)c1ccc(O)cc1 (centres undefined),"inconclusive: 17.8 µM [activator, single point]",–
CCOc1ccc(-c2nnc(-c3cccs3)o2)cc1OCC,inactive,–
[O-][n+]1onc2c1CCc1c-2nn(-c2ccccc2Cl)[n+]1[O-],active: 6.31 µM,–
Cc1ccc(C2SCC(=O)N2c2ccccc2)cc1 (centres undefined),inactive,–
C/C(=N\NC(=O)CCn1nc(C)cc1C)C(C)(C)C,active: 11.2 µM,–
CC(C)CN1C(=O)c2ccc(C(=O)NCc3ccccn3)cc2C1=O,inactive,–
O=C(Nc1cccc([N+](=O)[O-])c1)c1ccccc1,"inconclusive: 20 µM [activator, single point]",–
CCOc1ccc(N2C(=O)c3ccccc3C2O)cc1 (centres undefined),"inconclusive: 0.891 µM [activator, single point]",–
CCOc1ccc(N2C(=O)CC(Sc3ncccn3)C2=O)cc1 (centres undefined),"inconclusive: 35.5 µM [inhibitor, single point]",–
Cc1ccc(C(=O)Nc2ncnc3sc4c(c23)CCCCC4)cc1,"inconclusive: 0.126 µM [inhibitor, full curve, poor fit]",–
